Laboratory results reported in patent US20220133794A1 (Stanford University, published 2022).
Results are given in words; binding and its absence hold for the method and conditions named. Some results given as binding are weak or reduced against the parent protein; the word gives no strength. Each block holds one binder with its values, some of them ahead of it.

Sequences of proteins named here, by UniProt entry; tags and fusion partners are left off. Residues count along the entry.
UniProt Q9NPY3, residues 22-580: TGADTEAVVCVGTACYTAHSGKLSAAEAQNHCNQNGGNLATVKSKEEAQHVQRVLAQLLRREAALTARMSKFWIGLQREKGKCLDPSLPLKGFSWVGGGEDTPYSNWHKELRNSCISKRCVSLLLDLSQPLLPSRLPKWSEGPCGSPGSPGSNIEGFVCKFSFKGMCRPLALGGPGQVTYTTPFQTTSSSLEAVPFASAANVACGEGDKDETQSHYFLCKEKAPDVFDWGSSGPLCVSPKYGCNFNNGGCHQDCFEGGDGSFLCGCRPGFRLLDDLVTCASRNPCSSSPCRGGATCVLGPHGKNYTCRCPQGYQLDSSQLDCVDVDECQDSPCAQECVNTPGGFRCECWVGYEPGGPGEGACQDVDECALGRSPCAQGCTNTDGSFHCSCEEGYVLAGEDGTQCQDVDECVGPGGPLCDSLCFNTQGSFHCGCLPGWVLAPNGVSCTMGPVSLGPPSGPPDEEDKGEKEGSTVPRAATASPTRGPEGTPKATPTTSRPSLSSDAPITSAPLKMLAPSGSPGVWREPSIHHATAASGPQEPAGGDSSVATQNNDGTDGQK

Columns and labels:
[1] = target: human CD93/Fc fusion protein (human) (UniProt Q9NPY3); experiment: ELISA, coated human CD93/Fc, HRP anti-human kappa, OD490
[2] = target: human CD93/Fc fusion protein (human) (UniProt Q9NPY3); experiment: ELISA, coated human CD93/Fc fusion protein

binding [1]: binds
binding [2]: binds
B1: humanized F11-G1 (Hu F11-G1) (antibody, V domains shown)
VH: QVQLVQSGAEVKKPGASVKVSCKASGYTFTDYHMDWVKQAPGQGLEWIGDIDPYNGDTVFNQKFKGKATMTRDTSISTAYMELSRLRSDDTAVYYCTRGGDYWGQGTLVTVSS
VL: DIVMTQTPLSLSVTPGQPASISCRSSQTLVHSNGNTYLHWYLQKPGQPPQLLIYKVSNRFSGVPDRFSGSGSGTDFTLKISRVEAEDVGVYFCSQSTHVPFTFGQGTKLEIK
notes: The light chain was detected with anti-human kappa; also called humanized mCD93 antibody (F11); humanized anti-CD93 antibody

binding [2]: binds
B2: HuF11-G1 mutant (HuF11-G1 TM) (antibody, V domains shown)
VH: B1 VH
VL: B1 VL
